Results published in article PMC3695523, “Reconstitution and characterization of eukaryotic N6-threonylcarbamoylation of tRNA using a minimal enzyme system” (Nucleic Acids Research, 2013).
These are yes or no findings as the source states them, for the method shown.

Target: Qri7 (30-407) V134R (yeast (Saccharomyces cerevisiae)) (UniProt P43122)
Experiment: condition: 0.3125, 0.0625, 0.125, 0.250, 0.5 or 1 mg/ml (methods); AUC; sedimentation velocity, 20°C, 42 000 rpm, 0.3125, 0.0625, 0.125, 0.250, 0.5 or 1 mg/ml protein; both purified

binding: no binding
B1: Qri7 (30-407) V134R (enzyme, UniProt P43122 30-407)
chain: RKGYKVLAIETSCDDTCVSVLDRFSKSAAPNVLANLKDTLDSIDEGGIIPTKAHIHHQARIGPLTERALIESNAREGIDLICVTRGPGMPGSLSGGLDFAKGLARAWNKPLIGVHHMLGHLLIPRMGTNGKVPQFPFVSLLVSGGHTTFVLSRAIDDHEILCDTIDIAVGDSLDKCGRELGFKGTMIAREMEKFINQDINDQDFALKLEMPSPLKNSASKRNMLSFSFSAFITALRTNLTKLGKTEIQELPEREIRSIAYQVQESVFDHIINKLKHVLKSQPEKFKNVREFVCSGGVSSNQRLRTKLETELGTLNSTSFFNFYYPPMDLCSDNSIMIGWAGIEIWESLRLVSDLDICPIRQWPLNDLLSVDGWRTDQL
